Screen size: about 52,000 sequences; about 210 (0.4%) were called active.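 The calls were made as follows: active = gene whose silencing raises cell survival under the drug, median off-target-corrected z-score across its silencing RNAs 2 or more; inactive = the rest.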 The list shows a part of the results.
assay: Resistance to Poly (ADP-Ribose) Polymerase inhibitor: Gene Identification via Genome-wide siRNA Screen; conditions: mouse BRCA2 R2336H ES cells, olaparib, CellTiter-Glo viability; active compounds read high
Summary of the method: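 Genome-wide siRNA screen (3 siRNAs/gene, 20 nM) in mouse ES cells carrying hypomorphic BRCA2 R2336H; olaparib 500 nM added 48 h post-transfection, CellTiter-Glo viability 72 h later. Normalized to plate-median negative control; MAD z-scores, gene median, seed-adjusted.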

Sequence | z-score
GGGUGACCUAAUCCAGUGUTT against Neurog3 | inactive: 0.779
GGCUAGCUACACAGUCUCATT against Plscr2 | inactive: -0.00856
GCUCAUCUCGAUUUGACUGTT against Cln3 | inactive: -0.183
GGGACAUAUUGUUUCCCUUTT against 4930563P21Rik | inactive: -0.817
GGGCAAAUGAAAACAAGAATT against 4933434M16Rik | inactive: 0.754
CCUGUAACCAGUAUAAAUATT against Fmo3 | inactive: -1.04
GGGAAUUACUGUUUCUGUCTT against E030041M21Rik | inactive: 0.962
CGCAAGGACCGAUCUGAUGTT against Rnps1 | inactive: -0.254
GGUUUGAAAGUUCUUUUGUTT against Zcsl2 | inactive: -0.239
GCUCACAGCAGCAUUUUACTT against 1700034H15Rik | inactive: 0.39
GGUGGGAAGAGUUUCAUCATT against Tesk2 | inactive: 1.38
GGAGGAAUAUCAGUCCCUGTT against 1110021H02Rik | inactive: -1.3
CCACAUAUAUCAACAAGCUTT against Olfr916 | inactive: 0.479
GCCUAGGUGACCUAAACUATT against D830014E11Rik | inactive: -0.0722
GGAGUUUCCCUCAAGAAAATT against Tgfbr3 | inactive: 2.42
GGCAGCCAAAUAUGGUGCUTT against Eln | inactive: 1.85
GGAUUGCAUCUUCCUCGAATT against Olfr816 | inactive: -0.676
GGAAGGUGACAAGCACACCTT against S100a6 | inactive: 1.68
GGAAAUGUGGAAUACACCGTT against Prlpf | inactive: -0.98
GGUCUUACGAGUAUUUUUUTT against 0610013E23Rik | inactive: 1.06
GCACUUGUGACUUAUUGGATT against 4930518C23Rik | inactive: -0.955
GCGCGAGGAAUUGAAACUCTT against Gna15 | inactive: 1.28

3 records picked at random from the list so far:
Sequence | z-score
GGCUAGCUACACAGUCUCATT against Plscr2 | inactive: -0.00856
GGAAGGUGACAAGCACACCTT against S100a6 | inactive: 1.68
GGGAAUUACUGUUUCUGUCTT against E030041M21Rik | inactive: 0.962

(further entries)

Sequence | z-score
GGCGAGUGUGCAGAAGUUUTT against Ifi44 | inactive: 1.11
GGAUGUGGAGAUGAAAGAGTT against Psmd3 | inactive: -2.9
GGAGGAUUUCAAGACAGCATT against 5430420C16Rik | inactive: 0.0169
GGACUGAAACUAGGUAGGGTT against Dact2 | inactive: 0.771
CCUCACGGCCUUAUAUCUCTT against Fmod | inactive: 0.0939
GGACUUGAACUGAAAAGUUTT against D830013H23Rik | inactive: 0.299
GCUGUGAUCUCAGUAUUCATT against Strbp | inactive: 2.3
GGGUGUUGAUGUCAUUGUGTT against Dbn1 | inactive: 0.871
GCAUUUUAAUGCGCCAGUUTT against Atp2c1 | inactive: -1
CCAAUGAAUACUUGUCAGCTT against Cpne2 | inactive: -1.21
GGCUACUGUAAGAUUUCUATT against 4933406M09Rik | inactive: -0.398
GGUUGGCUUCCUGAAGAUCTT against 1700037H04Rik | inactive: -1.18
GCCUGACGGUUGUAAGAGUTT against Npc2 | inactive: 0.222
GGUCCUAUUCCUACCAUUCTT against A830058L05 | inactive: 0.364
AGACCGACGUGAAAGAGGATT against Hand2 | inactive: 0.508
GGAGUGUGCUCAAUACACATT against Psmc3ip | inactive: -1.32
GGAGGACAUUGGUAAAAAUTT against Ube1x | inactive: -1.66
GGAGAUCCAGUUUUUUAACTT against Ndst1 | inactive: 2.2
GGCAGGUUCGAAGAUGUCUTT against Mknk2 | inactive: -2.8
GGAAAAUAUUACUGAAGUGTT against Olfr1010 | inactive: 0.351
UUCAUUCAUAUGGACAGUUTT against Psg19 | inactive: -0.0859
CCUGUGAACGCGACAUCAATT against Notch4 | inactive: 2.82

Sequence | z-score
GGAAGGGUAAAUUUAGAAGTT against Arrdc3 | inactive: 0.257
CCUUUUAACAGACAUGGUUTT against Tlr1 | inactive: 0.55
CCAGAAGUGGAUAAACUCUTT against Olfr122 | inactive: -0.529
GGCUUUGGAGGACUCAUUUTT against Uros | inactive: 0.614
GCCUGAUGACGGGAAAAUGTT against Glo1 | inactive: -2.38
GCUGUUGCACCAAUUAGUCTT against 4922503E23Rik | inactive: 0.3
GCUAUCUAAGCAAAAGAGATT against B230118H07Rik | inactive: 0.32
CCGAAUUUGUAGGAAUCGATT against 5730599I05Rik | inactive: 1.03
CGUAGGUUUUAUAACAUGUTT against Tead3 | inactive: -0.0557
GCAACACAGUAUGUACAAUTT against Dsg4 | inactive: 0.186
CCUGGACGAGUGCUGAAGATT against Crry | inactive: -1.11
GCCAAAGGACAGUUGAAGUTT against Gcs1 | inactive: -0.397
GGUAUUGAGUAUCUUAGGUTT against Atf7 | inactive: 3.37
CCUGUUCAUAUGUAGUGCATT against 1810020G14Rik | inactive: -0.474
CCAACACUAUUACUGUAAATT against Arg2 | inactive: 0.719
GCUAGUUGAUAGUCAGAUATT against Tbrg4 | inactive: 0.00469
GCUCAGCUAGCAGAAAUUCTT against Nalp2 | inactive: -0.139
GCAAUCAAGCUUGAAAGUUTT against Dusp4 | inactive: 1.28
GGCUGAGUGAAUUGGGAAUTT against Olfr419 | inactive: -1.01
CCAAUAGAGAUGCAAAUCATT against Nek6 | inactive: 0.386
CGAACAUUCGGAAAUGUCATT against Ifnb1 | inactive: -0.216
GCUGCAUCGACAUAUCAGATT against Tle2 | inactive: -0.41

— PubChem BioAssay AID1347423 (Functional Genomics Laboratory (NCATS/FGL), 2020)
